Measured values taken from publication PMC12040169 (PLOS Biology, 2025).
This is one part of the list.

Each compound was assayed on T1, CTL2-GFP (C. trachomatis L2/434/Bu, GFP-expressing). Conditions: bulk GFP, single well; 28.5 h, 10 µM; inhibitor.
T1 construct: L2/434/Bu, GFP-expressing
Parameters: species or system HeLa; Intracellular C. trachomatis growth in HeLa cells, bulk GFP fluorescence relative to DMSO

**Q.** With `Cc1cc(C)nc(NC2=NC3CCCCC3N2C(=O)Nc2ccc(Cl)c(Cl)c2)n1` (centres unmarked) [CBK266458] as the compound, how does the “% of control remaining” value read?
**A.** 109.383%

**Q.** `O=C(CSc1nnc(COc2ccccc2)n1-c1ccccc1)c1cccs1` [CBK265133] was tested. Which “% of control remaining” value did it give?
**A.** 118.18%

**Q.** For `CCn1c(CN(C)Cc2cc(C)[nH]n2)nc2ccccc21` [CBK282120], which “% of control remaining” value is on record?
**A.** 119.52%

**Q.** `Cc1ccc(SCCNS(=O)(=O)c2cccc([N+](=O)[O-])c2)cc1` [CBK267508] was tested. Which “% of control remaining” value did it give?
**A.** 133.161%

**Q.** `Cn1c(-c2ccccc2)cnc1NC(=O)CC1CCN(C(=O)Cc2ccccc2)CC1` [CBK285966] was tested. Which “% of control remaining” value did it give?
**A.** 112.17%

**Q.** For `O=C(O)c1ccc(-n2ccnc2)c(C#Cc2ccccc2)c1` [CBK284502], which “% of control remaining” value is on record?
**A.** 126.352%

**Q.** How did the “% of control remaining” value turn out when `Oc1ccc(-n2cc(-c3ccc(F)cc3)nn2)cc1` [CBK113126] was run?
**A.** 121.88%

**Q.** How did the “% of control remaining” value turn out when `CCC1CN(C(=O)Cn2cnc3ccc(F)cc3c2=O)CCO1` (centres unmarked) [CBK305795] was run?
**A.** 126.551%

**Q.** With `O=C(Nc1ccc(Oc2ccccc2)cc1)c1cc([N+](=O)[O-])cc2cn[nH]c12` [CBK293985] as the compound, how does the “% of control remaining” value read?
**A.** 134.136%

**Q.** How did the “% of control remaining” value turn out when `Cc1ccc(N2C(=O)CC(Sc3ncccc3C(=O)O)C2=O)cc1` (centres unmarked) [CBK287761] was run?
**A.** 101.802%

**Q.** `Nc1nc(N)n(-c2ccccc2)n1` [CBK026515] was tested. Which “% of control remaining” value did it give?
**A.** 94.2865%

**Q.** Which “% of control remaining” value does the source give for `CN(c1ncccc1CNC(=O)c1cccnc1)C1CCCCC1` [CBK306555] here?
**A.** 125.997%

**Q.** With `CC(C)C[C@@H]1N[C@H](C(=O)NCCN(C)C)Cc2c[nH]c3cccc1c23` [CBK289417] as the compound, how does the “% of control remaining” value read?
**A.** 136.867%

**Q.** With `COc1ccc(-c2nn(CCC#N)cc2C(=O)N2CCCCC2)cc1` [CBK305834] as the compound, how does the “% of control remaining” value read?
**A.** 107.992%

**Q.** With `CCc1ccc(C2CC(=O)c3c(ccc4ccccc34)N2)cc1` (centres unmarked) [CBK098787] as the compound, how does the “% of control remaining” value read?
**A.** 100.17%

**Q.** How did the “% of control remaining” value turn out when `CCCn1cnc2c1CN(C(C)=O)[C@H](C(=O)OC)C2` [CBK288995] was run?
**A.** 128.875%

**Q.** With `COCCNc1nc(-c2cc(OC)c(OC)c(OC)c2)cnc1N` [CBK063559] as the compound, how does the “% of control remaining” value read?
**A.** 132.516%

**Q.** With `O=C(NC1CCc2ccccc21)N1CCN(CCc2ccccc2)CC1` (centres unmarked) [CBK158936] as the compound, how does the “% of control remaining” value read?
**A.** 149.809%

**Q.** Which “% of control remaining” value does the source give for `CC(CN(C)C)C(=O)c1ccsc1` (centres unmarked) [CBK025906] here?
**A.** 112.444%

**Q.** Which “% of control remaining” value does the source give for `CC(C)(O)Cc1ccccc1C(=O)NC1CCCCCC1` [CBK010502] here?
**A.** 127.133%

**Q.** Which “% of control remaining” value does the source give for `Cc1c(C(=O)N(C(C)C)C2CC2)nnn1-c1ccc2ncccc2c1` [CBK305518] here?
**A.** 97.834%

**Q.** How did the “% of control remaining” value turn out when `CS(=O)(=O)N1CCC2(CC1)NC(=O)N(Cc1ccccc1)C2=O` [CBK287656] was run?
**A.** 90.0757%

**Q.** For `S=c1[nH]nc2ccc(N3CCOCC3)nn12` [CBK008327], which “% of control remaining” value is on record?
**A.** 94.1141%

**Q.** How did the “% of control remaining” value turn out when `OC[C@H]1O[C@@H](n2cnc3cncnc32)C[C@H]1O` [CBK201243] was run?
**A.** 178.226%

**Q.** Which “% of control remaining” value does the source give for `CC12CN3CC(C)(CN(C1)C3c1cccc([N+](=O)[O-])c1)C2=O` (centres unmarked) [CBK009030] here?
**A.** 125.339%

**Q.** Which “% of control remaining” value does the source give for `CN(C)S(=O)(=O)c1cccc(-c2cn3cccnc3n2)c1` [CBK267580] here?
**A.** 95.5759%

**Q.** For `CC(C)(C)C1CCC(OC(=O)CCC(=O)O)CC1` (centres unmarked) [CBK026882], which “% of control remaining” value is on record?
**A.** 103.403%

**Q.** How did the “% of control remaining” value turn out when `Brc1nc2c3c(nc(N4CCOCC4)c2s1)CCCC3` [CBK019604] was run?
**A.** 101.516%

**Q.** How did the “% of control remaining” value turn out when `COc1ccc(C2CC(=O)C(=CNCCCN3CCOCC3)C(=O)C2)cc1` (centres unmarked) [CBK263647] was run?
**A.** 100%

**Q.** Which “% of control remaining” value does the source give for `O=C(C[n+]1cccc(C(=O)N/N=C/c2ccc(Br)cc2)c1)c1ccccc1` [CBK262063B] here?
**A.** 100%

**Q.** With `CC(=O)c1c(C)c2c(=O)n3c(nc2[nH]c1=O)CCC3` [CBK287872] as the compound, how does the “% of control remaining” value read?
**A.** 121.907%

**Q.** How did the “% of control remaining” value turn out when `COc1ccccc1N1CCN(CCC(=O)Nc2ccccc2F)CC1` [CBK264313] was run?
**A.** 126.659%

**Q.** Which “% of control remaining” value does the source give for `O=C1CC2(CCC3C(C(=O)N4CCCCC4)C32)Oc2ccccc21` (centres unmarked) [CBK284947] here?
**A.** 97.3679%

**Q.** Which “% of control remaining” value does the source give for `CN1CCC(OCCCn2ccnc2-c2ccccc2C(=O)O)CC1` [CBK307188] here?
**A.** 149.818%

**Q.** How did the “% of control remaining” value turn out when `CC(=O)Nc1cccc(/C(C)=N/NC(=O)c2ccc(CN3CCOCC3)cc2)c1` [CBK262746] was run?
**A.** 113.383%

**Q.** For `COCC1(C(=O)N2CCN(c3ccccc3C#N)CC2)CCC1` [CBK304361], which “% of control remaining” value is on record?
**A.** 123.498%

**Q.** `Nc1ncc(-c2cc(C(F)(F)F)cc(C(F)(F)F)c2)nc1Nc1ccc2[nH]ccc2c1` [CBK063651] was tested. Which “% of control remaining” value did it give?
**A.** 165.856%

**Q.** With `O=[N+]([O-])c1ccc(Cl)cc1CN1CCN(C/C=C/c2ccccc2)CC1` [CBK261568] as the compound, how does the “% of control remaining” value read?
**A.** 111.843%

**Q.** How did the “% of control remaining” value turn out when `CNCCc1n[nH]c(N)n1` [CBK020959] was run?
**A.** 111.335%

**Q.** With `COc1ccc(Nc2nc(-c3cccc(-c4ccccc4)c3)cnc2N)cc1` [CBK063593] as the compound, how does the “% of control remaining” value read?
**A.** 146.834%

**Q.** With `Cn1c(=O)[nH]c(=O)c2c1nc(N/N=C/c1cc(Br)ccc1O)n2CCO` [CBK139415] as the compound, how does the “% of control remaining” value read?
**A.** 106.094%

**Q.** Which “% of control remaining” value does the source give for `COc1ccccc1NC(=O)c1ccc(OCC(=O)O)cc1` [CBK265849] here?
**A.** 123.715%

**Q.** Which “% of control remaining” value does the source give for `CN(C)CCNc1cc(-c2ccncc2)nc2ccccc12` [CBK066898B] here?
**A.** 110.761%

**Q.** With `Cc1onc(-c2ccccc2)c1CNC(=O)CC1CC1` [CBK144072] as the compound, how does the “% of control remaining” value read?
**A.** 110.391%

**Q.** `c1ccc2c(OCc3nnn[nH]3)cccc2c1` [CBK269495] was tested. Which “% of control remaining” value did it give?
**A.** 122.462%

**Q.** For `COc1ccccc1-c1ccccc1CC1(C(=O)NCc2ccc(F)cc2)CCOCC1` [CBK286425], which “% of control remaining” value is on record?
**A.** 96.1373%

**Q.** With `CC(NC(=O)N1CCCN(Cc2cccs2)CC1)c1nncn1C` (centres unmarked) [CBK305322] as the compound, how does the “% of control remaining” value read?
**A.** 110.709%

**Q.** `O=C(O)CCC(=O)Nc1cccc(NC(=O)c2ccc(Br)cc2)c1` [CBK300180] was tested. Which “% of control remaining” value did it give?
**A.** 155.582%

**Q.** How did the “% of control remaining” value turn out when `O=C(CC(C(=O)O)P(=O)(c1ccccc1)c1ccccc1)c1ccccc1` (centres unmarked) [CBK264971] was run?
**A.** 119.899%

**Q.** How did the “% of control remaining” value turn out when `Cc1nc(CC(=O)NC(Cc2ccsc2)c2nccs2)cs1` (centres unmarked) [CBK282823] was run?
**A.** 128.155%

**Q.** How did the “% of control remaining” value turn out when `Cc1ccc(-c2noc(CN3CCN(Cc4ccccc4)CC3)n2)cc1` [CBK267288] was run?
**A.** 148.864%

**Q.** How did the “% of control remaining” value turn out when `COC(=O)Cn1nnc(-c2ccccc2)n1` [CBK069215] was run?
**A.** 128.607%

**Q.** For `CC(=O)Nc1ccc(NC(=O)CCC(=O)O)cc1C` [CBK265395], which “% of control remaining” value is on record?
**A.** 104.417%
